Assay results as given in the supplement of paper PMC7666118.
The other results are listed elsewhere or left out.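 How the source made its calls: active = dose-dependent thermal stabilisation significant by F-test of dose-response against flat model at 10% FDR; inactive = not significant.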

The chains behind the UniProt entries cited, without tags or fusion partners. Where a name states a change or a piece, a line headed by the entry shows the natural chain unless it says otherwise.
UniProt P32321: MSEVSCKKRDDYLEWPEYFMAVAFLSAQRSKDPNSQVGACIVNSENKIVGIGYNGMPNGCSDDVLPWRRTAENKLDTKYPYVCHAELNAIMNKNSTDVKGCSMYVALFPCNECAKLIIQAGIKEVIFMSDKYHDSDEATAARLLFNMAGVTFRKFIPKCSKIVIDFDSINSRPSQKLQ
UniProt Q9Y222: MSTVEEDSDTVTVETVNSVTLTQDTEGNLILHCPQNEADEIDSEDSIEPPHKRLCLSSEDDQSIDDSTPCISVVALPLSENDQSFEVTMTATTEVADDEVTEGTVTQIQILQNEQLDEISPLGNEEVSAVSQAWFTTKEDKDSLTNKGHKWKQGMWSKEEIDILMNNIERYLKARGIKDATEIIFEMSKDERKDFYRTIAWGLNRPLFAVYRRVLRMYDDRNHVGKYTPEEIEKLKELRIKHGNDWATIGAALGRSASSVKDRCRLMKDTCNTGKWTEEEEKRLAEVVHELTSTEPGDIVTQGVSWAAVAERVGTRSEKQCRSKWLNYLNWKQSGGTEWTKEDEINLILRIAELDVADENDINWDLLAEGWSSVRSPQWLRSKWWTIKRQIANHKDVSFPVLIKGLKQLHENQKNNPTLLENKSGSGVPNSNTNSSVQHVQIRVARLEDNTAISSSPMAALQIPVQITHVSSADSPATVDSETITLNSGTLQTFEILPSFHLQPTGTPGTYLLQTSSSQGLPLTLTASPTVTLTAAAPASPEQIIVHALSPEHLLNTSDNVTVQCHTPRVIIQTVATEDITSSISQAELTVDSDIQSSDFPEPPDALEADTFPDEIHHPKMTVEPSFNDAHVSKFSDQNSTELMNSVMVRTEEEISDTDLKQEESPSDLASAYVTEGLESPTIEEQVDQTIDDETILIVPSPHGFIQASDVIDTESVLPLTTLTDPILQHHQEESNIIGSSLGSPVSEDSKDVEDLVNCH
UniProt P23919: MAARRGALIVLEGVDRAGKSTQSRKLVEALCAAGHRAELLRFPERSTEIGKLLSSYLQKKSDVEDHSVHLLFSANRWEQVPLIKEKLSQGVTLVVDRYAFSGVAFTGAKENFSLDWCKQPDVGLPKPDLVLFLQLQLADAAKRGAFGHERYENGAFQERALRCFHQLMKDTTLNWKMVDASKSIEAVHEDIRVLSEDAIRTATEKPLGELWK
UniProt Q14247: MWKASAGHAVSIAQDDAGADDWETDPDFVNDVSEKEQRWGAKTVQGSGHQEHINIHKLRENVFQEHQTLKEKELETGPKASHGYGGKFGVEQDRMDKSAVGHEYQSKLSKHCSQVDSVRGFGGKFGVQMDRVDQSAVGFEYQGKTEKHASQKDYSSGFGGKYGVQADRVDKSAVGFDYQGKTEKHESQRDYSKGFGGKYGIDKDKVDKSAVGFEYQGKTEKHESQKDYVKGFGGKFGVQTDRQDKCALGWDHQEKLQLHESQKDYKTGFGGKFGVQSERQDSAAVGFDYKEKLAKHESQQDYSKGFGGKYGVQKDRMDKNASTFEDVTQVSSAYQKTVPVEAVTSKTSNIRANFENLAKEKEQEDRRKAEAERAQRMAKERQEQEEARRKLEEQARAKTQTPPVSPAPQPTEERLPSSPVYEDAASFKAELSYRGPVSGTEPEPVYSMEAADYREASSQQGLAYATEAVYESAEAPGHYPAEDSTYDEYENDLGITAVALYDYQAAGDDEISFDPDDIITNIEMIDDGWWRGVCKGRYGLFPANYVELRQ
UniProt Q2VPK5: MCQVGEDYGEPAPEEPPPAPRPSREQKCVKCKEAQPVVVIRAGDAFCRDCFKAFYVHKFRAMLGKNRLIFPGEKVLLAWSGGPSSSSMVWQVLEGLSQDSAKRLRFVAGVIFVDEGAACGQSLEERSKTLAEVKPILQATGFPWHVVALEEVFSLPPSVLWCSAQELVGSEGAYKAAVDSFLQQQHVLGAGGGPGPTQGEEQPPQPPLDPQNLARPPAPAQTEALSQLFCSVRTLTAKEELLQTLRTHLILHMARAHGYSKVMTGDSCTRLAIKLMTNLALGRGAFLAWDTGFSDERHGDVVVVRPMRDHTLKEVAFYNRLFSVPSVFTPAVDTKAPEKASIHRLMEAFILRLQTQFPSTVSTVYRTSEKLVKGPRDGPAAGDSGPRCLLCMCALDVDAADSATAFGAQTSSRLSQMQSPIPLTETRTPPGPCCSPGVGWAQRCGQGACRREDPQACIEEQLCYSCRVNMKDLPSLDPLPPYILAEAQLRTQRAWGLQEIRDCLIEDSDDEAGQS
UniProt Q4LDG9: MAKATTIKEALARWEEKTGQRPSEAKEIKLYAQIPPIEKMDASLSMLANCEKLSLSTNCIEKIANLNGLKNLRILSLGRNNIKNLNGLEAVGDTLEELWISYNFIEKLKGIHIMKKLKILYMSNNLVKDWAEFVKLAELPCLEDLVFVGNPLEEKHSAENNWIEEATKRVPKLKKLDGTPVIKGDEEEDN
UniProt P10515, whole entry: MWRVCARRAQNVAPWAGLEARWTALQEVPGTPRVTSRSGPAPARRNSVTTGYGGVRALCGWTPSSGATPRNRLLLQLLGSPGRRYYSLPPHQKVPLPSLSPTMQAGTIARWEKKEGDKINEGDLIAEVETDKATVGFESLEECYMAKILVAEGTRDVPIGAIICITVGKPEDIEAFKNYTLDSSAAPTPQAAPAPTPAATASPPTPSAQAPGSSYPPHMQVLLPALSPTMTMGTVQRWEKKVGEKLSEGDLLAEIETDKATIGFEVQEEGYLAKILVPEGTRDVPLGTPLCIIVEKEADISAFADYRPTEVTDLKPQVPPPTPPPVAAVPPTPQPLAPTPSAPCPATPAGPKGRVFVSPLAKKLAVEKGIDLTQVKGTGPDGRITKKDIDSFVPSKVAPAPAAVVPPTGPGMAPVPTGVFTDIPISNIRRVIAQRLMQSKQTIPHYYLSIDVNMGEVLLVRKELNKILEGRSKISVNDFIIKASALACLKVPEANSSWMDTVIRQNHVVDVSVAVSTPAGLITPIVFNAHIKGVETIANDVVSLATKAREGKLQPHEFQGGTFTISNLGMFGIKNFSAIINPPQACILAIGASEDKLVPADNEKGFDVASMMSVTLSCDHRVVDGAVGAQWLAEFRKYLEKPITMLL
UniProt Q96SD1, whole entry: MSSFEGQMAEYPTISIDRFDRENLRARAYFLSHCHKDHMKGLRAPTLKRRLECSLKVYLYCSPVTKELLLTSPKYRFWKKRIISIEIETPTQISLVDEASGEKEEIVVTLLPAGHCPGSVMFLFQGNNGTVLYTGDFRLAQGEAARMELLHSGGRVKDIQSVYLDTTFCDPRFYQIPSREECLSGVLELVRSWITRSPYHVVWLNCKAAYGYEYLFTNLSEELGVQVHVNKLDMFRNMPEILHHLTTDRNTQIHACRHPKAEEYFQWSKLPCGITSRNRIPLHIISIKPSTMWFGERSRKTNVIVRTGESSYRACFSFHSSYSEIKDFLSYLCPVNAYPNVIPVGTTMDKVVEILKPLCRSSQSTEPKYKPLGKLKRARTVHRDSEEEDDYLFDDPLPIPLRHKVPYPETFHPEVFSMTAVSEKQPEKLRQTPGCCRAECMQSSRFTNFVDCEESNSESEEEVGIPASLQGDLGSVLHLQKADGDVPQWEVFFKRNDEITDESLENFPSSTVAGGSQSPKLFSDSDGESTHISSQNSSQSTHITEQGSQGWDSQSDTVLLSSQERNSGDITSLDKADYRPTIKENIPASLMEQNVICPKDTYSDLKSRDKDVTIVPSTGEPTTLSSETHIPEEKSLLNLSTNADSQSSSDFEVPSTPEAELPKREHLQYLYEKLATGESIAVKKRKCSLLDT
UniProt Q6P3W2: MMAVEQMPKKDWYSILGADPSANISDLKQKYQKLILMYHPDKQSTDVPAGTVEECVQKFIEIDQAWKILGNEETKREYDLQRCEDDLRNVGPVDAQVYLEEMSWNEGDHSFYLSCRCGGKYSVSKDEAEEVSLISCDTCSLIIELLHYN
UniProt O75398: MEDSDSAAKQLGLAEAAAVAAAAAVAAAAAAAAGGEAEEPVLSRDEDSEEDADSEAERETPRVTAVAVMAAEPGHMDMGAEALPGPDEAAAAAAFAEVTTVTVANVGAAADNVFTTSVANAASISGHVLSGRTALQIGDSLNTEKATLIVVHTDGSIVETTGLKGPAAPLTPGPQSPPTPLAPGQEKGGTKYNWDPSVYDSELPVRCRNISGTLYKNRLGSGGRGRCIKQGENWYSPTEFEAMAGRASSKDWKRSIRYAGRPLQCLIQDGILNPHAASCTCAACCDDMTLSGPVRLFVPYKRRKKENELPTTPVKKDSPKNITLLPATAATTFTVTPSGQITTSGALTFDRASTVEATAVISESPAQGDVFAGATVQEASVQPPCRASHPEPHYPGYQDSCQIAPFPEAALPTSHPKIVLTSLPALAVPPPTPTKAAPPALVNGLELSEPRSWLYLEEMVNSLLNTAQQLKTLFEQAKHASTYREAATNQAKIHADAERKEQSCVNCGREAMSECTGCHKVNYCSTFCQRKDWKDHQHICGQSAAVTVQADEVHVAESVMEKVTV
UniProt O60610, whole entry: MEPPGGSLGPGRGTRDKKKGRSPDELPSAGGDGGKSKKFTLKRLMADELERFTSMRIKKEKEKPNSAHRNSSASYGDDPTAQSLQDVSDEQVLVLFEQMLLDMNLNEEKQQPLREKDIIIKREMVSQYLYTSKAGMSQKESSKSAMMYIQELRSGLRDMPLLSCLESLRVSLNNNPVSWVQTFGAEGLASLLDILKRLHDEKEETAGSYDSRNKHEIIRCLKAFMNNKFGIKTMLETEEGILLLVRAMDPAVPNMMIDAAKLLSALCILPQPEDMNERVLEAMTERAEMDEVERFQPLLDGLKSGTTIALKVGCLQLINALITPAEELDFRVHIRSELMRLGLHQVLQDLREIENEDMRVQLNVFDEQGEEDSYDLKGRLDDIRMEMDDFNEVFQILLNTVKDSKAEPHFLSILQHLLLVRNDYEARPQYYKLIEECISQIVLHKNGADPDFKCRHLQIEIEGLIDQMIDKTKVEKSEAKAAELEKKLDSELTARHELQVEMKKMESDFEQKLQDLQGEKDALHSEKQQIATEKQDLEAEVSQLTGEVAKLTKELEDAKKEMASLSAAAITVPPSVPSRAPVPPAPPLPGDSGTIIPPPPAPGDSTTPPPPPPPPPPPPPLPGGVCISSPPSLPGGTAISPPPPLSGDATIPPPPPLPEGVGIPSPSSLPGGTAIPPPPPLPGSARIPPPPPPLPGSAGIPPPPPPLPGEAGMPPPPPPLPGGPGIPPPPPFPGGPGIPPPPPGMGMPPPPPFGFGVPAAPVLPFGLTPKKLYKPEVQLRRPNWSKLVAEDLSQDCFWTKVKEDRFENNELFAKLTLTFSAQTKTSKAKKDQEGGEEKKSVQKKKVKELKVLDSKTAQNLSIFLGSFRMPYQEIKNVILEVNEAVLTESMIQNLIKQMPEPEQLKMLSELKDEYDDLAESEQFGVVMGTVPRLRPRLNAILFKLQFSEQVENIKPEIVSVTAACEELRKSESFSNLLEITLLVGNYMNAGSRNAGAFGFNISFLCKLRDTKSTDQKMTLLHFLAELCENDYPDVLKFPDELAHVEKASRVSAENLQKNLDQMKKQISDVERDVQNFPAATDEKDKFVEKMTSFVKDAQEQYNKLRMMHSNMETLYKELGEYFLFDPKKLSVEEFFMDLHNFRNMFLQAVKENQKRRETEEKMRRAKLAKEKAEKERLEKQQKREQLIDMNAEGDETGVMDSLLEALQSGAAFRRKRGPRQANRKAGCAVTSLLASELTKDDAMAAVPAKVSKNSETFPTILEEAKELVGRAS
UniProt Q16254: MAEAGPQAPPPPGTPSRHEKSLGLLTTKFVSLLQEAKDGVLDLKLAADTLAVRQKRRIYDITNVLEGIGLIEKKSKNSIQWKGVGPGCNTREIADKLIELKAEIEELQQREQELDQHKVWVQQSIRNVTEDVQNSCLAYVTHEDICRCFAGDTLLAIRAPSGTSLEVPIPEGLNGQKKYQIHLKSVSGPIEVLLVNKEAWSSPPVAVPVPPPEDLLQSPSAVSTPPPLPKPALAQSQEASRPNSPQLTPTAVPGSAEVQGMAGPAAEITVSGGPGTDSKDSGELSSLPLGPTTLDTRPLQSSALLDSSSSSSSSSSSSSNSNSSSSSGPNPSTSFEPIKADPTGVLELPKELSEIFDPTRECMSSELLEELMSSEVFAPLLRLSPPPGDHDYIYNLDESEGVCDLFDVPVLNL
UniProt Q05048: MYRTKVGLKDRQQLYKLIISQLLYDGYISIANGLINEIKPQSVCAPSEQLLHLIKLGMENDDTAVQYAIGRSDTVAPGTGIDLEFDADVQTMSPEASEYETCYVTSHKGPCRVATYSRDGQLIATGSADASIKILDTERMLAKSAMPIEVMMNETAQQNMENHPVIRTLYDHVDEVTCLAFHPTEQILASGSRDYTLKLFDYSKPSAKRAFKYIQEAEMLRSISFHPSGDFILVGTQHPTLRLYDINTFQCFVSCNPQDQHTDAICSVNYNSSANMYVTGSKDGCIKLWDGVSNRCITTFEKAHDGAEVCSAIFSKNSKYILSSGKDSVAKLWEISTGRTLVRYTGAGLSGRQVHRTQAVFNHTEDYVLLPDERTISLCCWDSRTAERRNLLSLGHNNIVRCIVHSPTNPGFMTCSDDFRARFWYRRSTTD

compound: Nc1nc2c(ncn2[C@@H]2O[C@H](COP(=O)(O)OP(=O)(O)OP(=O)(O)O)[C@@H](O)[C@H]2O)c(=O)[nH]1; assay: dose-dependent thermal stabilisation call (2D-TPP, DLPTP, 10% FDR) (binary (1 = stabilised)); higher = stabilised by the compound; details: system: Jurkat gel-filtered lysate; concentration range 1-500 µM

Row | Target | dose-dependent thermal stabilisation call
1 | DCAF7 (UniProt P61962) | inactive: 0
2 | DCTD (UniProt P32321) | inactive: 0
3 | DTD1 (UniProt Q8TEA8) | inactive: 0
4 | CUX1 (UniProt P39880) | inactive: 0
5 | DTNBP1 (UniProt Q96EV8) | inactive: 0
6 | DXO (UniProt O77932) | inactive: 0
7 | DMTF1 (UniProt Q9Y222) | inactive: 0
8 | DTYMK (UniProt P23919) | active: 1
9 | CTDSPL2 (UniProt Q05D32) | inactive: 0
10 | CRYZ (UniProt Q08257) | inactive: 0
11 | DDX39A (UniProt O00148) | inactive: 0
12 | CTTN (UniProt Q14247) | inactive: 0
13 | CTU2 (UniProt Q2VPK5) | inactive: 0
14 | DCUN1D5 (UniProt Q9BTE7) | active: 1
15 | DKC1 (UniProt O60832) | inactive: 0
16 | DNAL1 (UniProt Q4LDG9) | inactive: 0
17 | CYB5B (UniProt O43169) | inactive: 0
18 | DENND4C (UniProt Q5VZ89) | inactive: 0

Given in CSV form: part of the list above.
Row,Target,dose-dependent thermal stabilisation call
13,CTU2 (UniProt Q2VPK5),inactive: 0
14,DCUN1D5 (UniProt Q9BTE7),active: 1

The results go on:

Row | Target | dose-dependent thermal stabilisation call
19 | DLAT (UniProt P10515) | inactive: 0
20 | DMXL1 (UniProt Q9Y485) | inactive: 0
21 | DHRS11 (UniProt Q6UWP2) | inactive: 0
22 | DPH5 (UniProt Q9H2P9) | inactive: 0
23 | DCLRE1C (UniProt Q96SD1) | inactive: 0
24 | DNAJC24 (UniProt Q6P3W2) | inactive: 0
25 | DLD (UniProt P09622) | inactive: 0
26 | DCAF8 (UniProt Q5TAQ9) | inactive: 0
27 | DARS (UniProt P14868) | inactive: 0
28 | DEAF1 (UniProt O75398) | inactive: 0
29 | DDX3X (UniProt O00571) | inactive: 0
30 | DIAPH1 (UniProt O60610) | inactive: 0
31 | E2F4 (UniProt Q16254) | inactive: 0
32 | DDX42 (UniProt Q86XP3) | active: 1
33 | CSTF1 (UniProt Q05048) | inactive: 0
34 | CSNK2A1 (UniProt P68400) | active: 1
35 | DNAJA1 (UniProt P31689) | inactive: 0
36 | CUL4B (UniProt Q13620) | inactive: 0
